Earlier results on 1 molecule are cited in patent US12115222B2, “Compositions and methods for improving the solubility of erectile dysfunction therapeutics” (Villya LLC, priority 2023, dated 2024).

For the series the following is noted: from the US FDA; cited from earlier work.

As for `O=C1NS(=O)(=O)c2ccccc21` [Saccharin], the “Times Sweeter than Sucrose” value is reported as 200-700.
